The source of these data is PubChem BioAssay AID1487 (National Center for Advancing Translational Sciences (NCATS), 2009).

The test in a line: qHTS Assay for Modulators of Lamin A Splicing. Conditions: HeLa LMNA splicing GFP/RFP minigene ratio, 48 h. The essentials:
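S3 HeLa stable clones carrying a lamin A-EGFP splicing minigene plus DsRed2 were seeded at 600 cells/well in Opti-MEM with 2% FBS, pin-dosed and incubated 48 h at 37°C. Acumen cytometry (488 nm) gave the GFP/RFP total-intensity ratio.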
(qHTS replaces the single test concentration by a dilution series.)

Setting [1] is: measured here: GFP splicing reporter channel.
[2] abbreviates: measured here: RFP viability control channel.

This is one part of the list. Shown are side measurements of this screen, not its main read-out; they come without a call. The list favours compounds with an active or inconclusive main result. The note in brackets gives the kind of curve behind each potency; many fits are weak.

What is called AC50 is the concentration giving half of the maximal activity seen. As to `COc1ccc(-c2nc3c(c4c2C[C@H](c2ccccc2)OC4)CN(C(=O)NCc2ccco2)CC3)c(C)c1`, the AC50 under setting [1] was 2.24 µM [rising, partial curve, poor fit].
As to `CCCn1c(SCC(=O)Nc2cc(Cl)ccc2Cl)n[nH]c1=O`, the AC50 under setting [1] was 2.51 µM [falling, partial curve].
As for `O=C1Nc2ccccc2N=C(c2ccccc2)c2ccccc21`, the AC50 under setting [2] is 0.00562 µM [falling, full curve, poor fit].
Consider `NC(=O)c1ccsc1NC(=O)CSc1nnc(Nc2ccccc2)s1`, for which, under setting [1], the AC50 was 35.5 µM [rising, single point].
As to `COC(=O)c1c(-c2ccc3ccccc3c2)csc1NC(=O)Cc1ccc(OC)c(OC)c1`, the AC50 under setting [2] is 17.8 µM [falling, single point].
On to `CC(C)n1c(NCc2c[nH]c3ccccc23)nc2ccccc21`, for which the AC50 under setting [2] is 35.5 µM [rising, single point].
On the same count and under the same terms, with `Cc1ccnc(NC(=O)CSc2cc(=O)n(C)c3ccccc23)c1` the figure was 3.16 µM [falling, partial curve, poor fit].
For `Cc1noc(C)c1-c1cc(NCc2cccs2)ncn1`, under setting [1], the AC50 was 15.8 µM [falling, partial curve].
Regarding `CCOC(=O)c1cc(C(=O)OCC)c(=O)[nH]c1N1CCCCC1`, under setting [2], the AC50 is 0.794 µM [falling, full curve, poor fit].
The same measure, in the same setting: in the case of `O=S(=O)(NC1CC2CCC1C2)c1ccc2c(c1)OCCO2` (stereo not given) it was 25.1 µM [rising, single point].
For the compound `Cc1ccc(Cl)cc1NC(=O)c1ccc(Cn2cc(Cl)cn2)cc1`, the AC50 was 35.5 µM [rising, single point] under setting [1] and 35.5 µM [rising, single point] under setting [2].
Take `COCC(C)Nc1ncnc2c1cnn2-c1ccc(C)c(C)c1` (stereo not given): the AC50 under setting [1] is 0.224 µM [falling, full curve, poor fit].
For the compound `CC(=O)C1=C(C)N(Cc2ccccc2)C(=O)N[C@H]1c1cccc(C(F)(F)F)c1`, the AC50 under setting [1] is 31.6 µM [rising, single point].
Consider `COc1cccc(C(=O)/C=C/Nc2ccc(S(=O)(=O)Nc3cccc(C(C)=O)c3)cc2)c1`, for which the AC50 runs as follows: under setting [1], 5.01 µM [rising, partial curve]; under setting [2], 10 µM [rising, partial curve].
As to `Cc1cccc(C(CC(=O)NCCc2ccccc2)c2ccccc2)c1O` (stereo not given), the AC50 under setting [2] is 7.08 µM [rising, partial curve, poor fit].
As for `CC(C)(C)C(=O)OCOC(=O)[C@@H]1N2C(=O)[C@@H](N=CN3CCCCCC3)[C@H]2SC1(C)C`, the AC50 was 1.58 µM [falling, single point] under setting [1] and 0.398 µM [rising, full curve, poor fit] under setting [2].
For `Cc1ccc(S(=O)(=O)NC(C)C(c2cccs2)N2CCN(c3ccccc3)CC2)cc1` (stereo not given), the AC50 by setting is: under setting [1], 17.8 µM [rising, single point]; under setting [2], 20 µM [rising, partial curve].
Turning to `CCOC(=O)c1c(S(=O)(=O)N2CCCC(C(=O)NCc3ccccc3OC)C2)c(C)n(C)c1C` (stereo not given), the AC50 under setting [2] was 10 µM [falling, partial curve, poor fit].
Same read-out and setting: in the case of `N#Cc1c(NC(=O)C2CCCO2)sc2c1CCCCCC2` (stereo not given) it was 3.98 µM [rising, partial curve, poor fit].
With `COc1cc(/C=C2/SC(=S)N(CC(=O)NC(C)(C)C)C2=O)cc(OC)c1OC`, the AC50 under setting [1] is 35.5 µM [rising, single point] and the AC50 under setting [2] is 35.5 µM [rising, single point].
In the case of `O=c1c(CCc2ccccc2)nc2cncnc2n1Cc1ccc(F)cc1`, under setting [1], the AC50 was 20 µM [falling, single point].
`N#Cc1ccc(C(=O)Nc2cc(S(=O)(=O)Nc3ccc(Cl)cc3)ccc2N2CCCCC2)cc1`: the AC50 under setting [2] was 2.24 µM [rising, full curve, poor fit].
Same read-out and setting: in the case of `COc1cc(/C=c2\s/c(=C\C(=O)C(C)(C)C)[nH]c2=O)cc(OC)c1OC` it was 4.47 µM [rising, full curve, poor fit]; in that of `c1ccc2[nH]c(CSc3nc4ccccc4o3)nc2c1`, 31.6 µM [rising, single point].
As for `O=C(c1ccc(Cl)c(S(=O)(=O)N2CCCCCC2)c1)N1CCN(c2ccccn2)CC1`, the AC50 under setting [1] was 20 µM [rising, single point] and the AC50 under setting [2] is 15.8 µM [rising, single point].
Regarding `CC1(C)Cc2nc3oc4c(N(CCO)Cc5ccccc5)ncnc4c3cc2CO1`, the AC50 under setting [2] was 20 µM [rising, single point].
On the same count and under the same terms, with `Cc1ccc(/C=N/NC(=O)CSCc2ccc(Cl)cc2)cc1` the figure was 31.6 µM [rising, single point].
Turning to `Cc1cc2ncn(C(=O)c3c(-c4c(Cl)cccc4Cl)noc3C)c2cc1C`, the AC50 reads like this: under setting [1], 22.4 µM [rising, single point]; under setting [2], 14.1 µM [rising, single point].
As to `O=C(c1ccc(S(=O)(=O)c2ccccc2Cl)c([N+](=O)[O-])c1)N1CCN(Cc2ccccc2)CC1`, the concentration at half-maximal activity (AC50) was 35.5 µM [falling, single point] under setting [1] and 35.5 µM [falling, single point] under setting [2].
Regarding `CC(C)CCNC(=O)C1CCC(Cn2c(=O)c3sccc3n(CC(=O)NC(C)C)c2=O)CC1` (stereo not given), the AC50 under setting [2] is 0.631 µM [falling, full curve].
Same read-out and setting: in the case of `NC(=O)c1ccccc1N=Cc1ccc2ccccc2c1` it was 15.8 µM [rising, single point].
With `Cc1ccc(CN2CCN(/N=C/c3cc(Br)ccc3O)CC2)cc1`, the AC50 under setting [1] was 35.5 µM [falling, single point].
As for `COc1cccc(NC(=O)CN(Cc2ccccc2)S(C)(=O)=O)c1`, the AC50 under setting [1] is 20 µM [rising, partial curve, poor fit] and the AC50 under setting [2] is 25.1 µM [rising, single point].
On to `Cc1nnc(N/N=C/c2c(O)n(-c3cccc(C(F)(F)F)c3)c(=O)c3ccccc23)[nH]c1=O`, for which the AC50 under setting [2] was 35.5 µM [falling, single point].
As to `CC(C)N1CCc2c(sc(NC(=O)c3cc(-c4cccs4)nc4ccccc34)c2C(N)=O)C1`, the AC50 under setting [1] is 0.355 µM [falling, partial curve, poor fit].
In the case of `CCOC(=O)CSC1=C(C#N)C(c2ccccc2OC)CC(=O)N1` (stereo not given), the AC50 under setting [2] is 11.2 µM [rising, partial curve].
Still for that read-out and setting: with `COC(=O)c1cccnc1-n1c(=O)c2cccnc2n(Cc2ccc([N+](=O)[O-])cc2)c1=O` the figure was 0.0224 µM [falling, full curve, poor fit].
Turning to `CC(CC(=O)Nc1ccc(Br)cc1F)S(=O)(=O)c1ccc2c(c1)NC(=O)CO2` (stereo not given), the AC50 under setting [1] is 0.0355 µM [falling, full curve, poor fit].
For the compound `CCCC(C)C(=O)NCc1ccncc1` (stereo not given), the AC50 was 35.5 µM [falling, single point] under setting [1] and 35.5 µM [falling, single point] under setting [2].
`COc1ccccc1-c1cncnc1Nc1ccccc1`: the AC50 under setting [1] is 15.8 µM [falling, partial curve] and the AC50 under setting [2] is 3.98 µM [falling, full curve, poor fit].
For the compound `CCCCOc1ccc(CNC(=O)CCCN2C(=O)CSc3c2c(C)nn3-c2ccccc2)cc1`, the AC50 under setting [1] was 0.02 µM [falling, full curve, poor fit].
On the same count and under the same terms, with `CCOC(=O)c1ccccc1NC(=O)c1sc2nc3n(c(=O)c2c1C)CCCC3` the figure was 0.891 µM [rising, full curve, poor fit]; with `CCc1ccc(CNC(=O)CN2C(=O)c3cccnc3Oc3ccc(C)cc32)cc1`, 22.4 µM [falling, partial curve, poor fit].
In the case of `O=C(NNC1OC(CO)C(O)C(O)C1O)c1cccc(Br)c1` (stereo not given), the AC50 under setting [2] is 10 µM [falling, partial curve, poor fit].
For `COc1ccc2[nH]cc(CCNc3ccnc(-c4ccccc4Cl)n3)c2c1`, the AC50 by setting is: under setting [1], 12.6 µM [falling, partial curve, poor fit]; under setting [2], 35.5 µM [falling, single point].
Turning to `O=C(Oc1c(CN2CCOCC2)cc(Cl)c2cccnc12)c1ccccc1F`, the AC50 under setting [2] is 2.82 µM [falling, full curve].
In the case of `Nc1ncnc2c1ncn2[C@@H]1O[C@H](COP(=O)(O)OP(=O)(O)OP(=O)(O)OP(=O)(O)OC[C@@H]2O[C@H](n3cnc4c(N)ncnc43)[C@@H](O)[C@@H]2O)[C@H](O)[C@H]1O`, the AC50 was 0.00562 µM [falling, full curve, poor fit] under setting [1] and 0.00562 µM [falling, full curve, poor fit] under setting [2].
For `Cc1cc(C)c2sc(NNC(=O)c3ccc(S(=O)(=O)N4CCc5ccccc5C4)cc3)nc2c1`, the AC50 is 3.98 µM [rising, single point] under setting [1] and 12.6 µM [rising, single point] under setting [2].
As for `C(=C\c1nc(N2CCCCCC2)c2ccccc2n1)/c1ccccc1`, the AC50 under setting [2] is 31.6 µM [rising, single point].
The same measure, in the same setting: with `O=C(CC(=O)Nc1cccc(Cl)c1)N/N=C\c1ccccc1` the figure was 20 µM [rising, single point]; with `Cc1ccc(S(=O)(=O)Nc2ccc(N=Nc3ccc(O)cc3)cc2)cc1`, 11.2 µM [rising, single point].
On to `O=C(Nc1cccc(S(=O)(=O)N2CCCCC2)c1)Nc1ccc(Cl)cc1Cl`, for which the AC50 under setting [2] was 15.8 µM [rising, single point].
Take `COC(=O)c1ccc(OCC(O)CN2C(=O)c3ccccc3S2(=O)=O)cc1` (stereo not given): the AC50 was 0.708 µM [falling, full curve, poor fit] under setting [1] and 1.12 µM [falling, full curve, poor fit] under setting [2].
`Cc1ccc(N(C(=O)c2snc(C(N)=O)c2N)C(C(=O)NCCC(C)C)c2ccco2)cc1` (stereo not given): the half-maximal activity concentration (AC50) under setting [1] was 7.08 µM [falling, full curve, poor fit].
With `O=C(NCc1cccnc1)C1CCN(S(=O)(=O)N2CCOCC2)CC1`, under setting [2], the AC50 is 6.31 µM [falling, single point].
